In article PMC10770036, “Novel dual inhibitors of PARP and HDAC induce intratumoral STING-mediated antitumor immunity in triple-negative breast cancer” (Cell Death & Disease, 2024):

What was measured:
[1] = system: MDA-MB-436 cells; assay: MTT cell viability assay, MDA-MB-436; details: Homo sapiens, MDA-MB-436, 72 h, read-out: IC50 MDA-MB-436
[2] = system: MCF-10A cells; assay: MTT cell viability assay, MCF-10A; details: Homo sapiens, 72 h, read-out: IC50 MCF-10A
[3] = system: MCF-7 cells; assay: MTT cell viability assay, MCF-7; details: Homo sapiens, MCF7, 72 h, read-out: IC50 MCF-7
[4] = system: MDA-MB-468 cells; assay: MTT cell viability assay, MDA-MB-468; details: Homo sapiens, MDA-MB-468, 72 h, read-out: IC50 MDA-MB-468
[5] = system: MDA-MB-231 cells; assay: MTT cell viability assay, MDA-MB-231; details: Homo sapiens, MDA-MB-231, 72 h, read-out: IC50 MDA-MB-231

## O=C(CCCCCCC(=O)Nc1ccccc1)NO [Vorinostat, vorinostat, reference compound]
[1]
  IC50: 4.29 ± 1.25 µM
[2]
  IC50: 6.4 ± 2.72 µM
[3]
  IC50: 980 ± 320 nM
[4]
  IC50: 3.36 ± 1.21 µM
[5]
  IC50: 2590 ± 270 nM
